In one series the test system is tumor tissue samples. Briefly: Identification and relative quantitation of HLA-presented tumor associated peptides by LC-MS (presentation profile). Also noted: species or system human. As to conditions: HLA-A*01 cancer tissues vs HLA-A*01 normal samples (N=13 normal, N=40 tumor); FIGS. 1E-1F.
“SEQ ID NO.: 154 (LLDISQKNLY; listed as Homo sapiens)”: the “over-presentation of peptide in cancer tissues compared to normal samples” value (“over-presentation … compared to normal samples” for short) is reported as “over-presentation”.

The same series, now with this note: HLA-A*03 cancer tissues vs HLA-A*03 normal samples (N=12 normal, N=28 tumor); FIGS. 1G-1H.
Consider “SEQ ID NO.: 457 (SINKPTSER; listed as Homo sapiens)”, for which the “over-presentation … compared to normal samples” value was “over-presentation”.

Staying with this series, now noted: HLA-B*07 cancer tissues vs HLA-B*07 normal samples (N=13 normal, N=36 tumor); FIGS. 1I-1J.
With “SEQ ID NO.: 291 (SPQRLRGLL; listed as Homo sapiens)”, the “over-presentation … compared to normal samples” value is “over-presentation”.

Still in this series, the particulars now being: HLA-B*08 cancer tissues vs HLA-B*08 normal samples (N=1 normal, N=22 tumor); FIGS. 1K-1L.
Turning to “SEQ ID NO.: 315 (DIYQRALNL; listed as Homo sapiens)”, the “over-presentation … compared to normal samples” value was “over-presentation”.

With “SEQ ID NO.: 317 (LVKVKVLL; listed as Homo sapiens)”, the “over-presentation … compared to normal samples” value is listed as “over-presentation”.

The same series, now with this note: cancer entities on which the tumor-associated peptide was found presented (HLA ligandome LC-MS); abbreviations per table footnote.
“80 (YYSPLRDLL; listed as Homo sapiens) [compound 80]”: the “Peptide Presentation on cancer entities” value is given as “MEL”.

Consider “33 (KSSVIASLLF; listed as Homo sapiens) [compound 33]”, for which the “Peptide Presentation on cancer entities” value is on record as “GBM”.

Regarding “376 (KYVKDFHKF; listed as Homo sapiens) [compound 376]”, the “Peptide Presentation on cancer entities” value was “AML, OC, PRCA, UEC”.

As to “449 (YLDRGTGNVSFY; listed as Homo sapiens) [compound 449]”, the “Peptide Presentation on cancer entities” value is given as “GBM, GC, HCC, MEL, PRCA, RCC”.

Take “399 (ATDIPCLLY; listed as Homo sapiens) [compound 399]”: the “Peptide Presentation on cancer entities” value is reported as “MEL”.

Consider “161 (LVDDGTHGQY; listed as Homo sapiens) [compound 161]”, for which the “Peptide Presentation on cancer entities” value was “GBM, GC, MEL”.

Take “119 (RTADITVTV; listed as Homo sapiens) [compound 119]”: the “Peptide Presentation on cancer entities” value is given as “AML, CRC, UBC”.

With “308 (MLKQKVEEL; listed as Homo sapiens) [compound 308]”, the “Peptide Presentation on cancer entities” value is recorded as “OSCAR”.

Regarding “397 (ASEITSKGASLY; listed as Homo sapiens) [compound 397]”, the “Peptide Presentation on cancer entities” value is reported as “GBM, GC, HCC, MEL, OC, PRCA”.

In the case of “387 (RWLPQKNAAQF; listed as Homo sapiens) [compound 387]”, the “Peptide Presentation on cancer entities” value is “AML, GC, HCC, MEL, OC, RCC, UEC”.

With “448 (YLDIPNPRY; listed as Homo sapiens) [compound 448]”, the “Peptide Presentation on cancer entities” value is given as “GBM, MEL, RCC”.

“50 (SYPELVKMVW; listed as Homo sapiens) [compound 50]”: the “Peptide Presentation on cancer entities” value was “AML, GC, HCC”.

For the substance “244 (FPYVRDFVM; listed as Homo sapiens) [compound 244]”, the “Peptide Presentation on cancer entities” value is reported as “GBC, MEL, NHL, OC, UEC”.

For the substance “103 (FLYYPDPVL; listed as Homo sapiens) [compound 103]”, the “Peptide Presentation on cancer entities” value is “GBC, HCC, MEL, NHL”.

“18 (DYIGSVEKW; listed as Homo sapiens) [compound 18]”: the “Peptide Presentation on cancer entities” value is listed as “PRCA”.

As to “370 (YEDLSQKY; listed as Homo sapiens) [compound 370]”, the “Peptide Presentation on cancer entities” value is “GBM, NHL, OC”.

Take “453 (AINTSIKNK; listed as Homo sapiens) [compound 453]”: the “Peptide Presentation on cancer entities” value is “PRCA”.

For “311 (EIRIRVVQM; listed as Homo sapiens) [compound 311]”, the “Peptide Presentation on cancer entities” value was “MEL, NHL, OC, PRCA”.

On to “313 (ELKKKEYEEL; listed as Homo sapiens) [compound 313]”, for which the “Peptide Presentation on cancer entities” value is reported as “NHL”.

For the substance “414 (KTDESLTKY; listed as Homo sapiens) [compound 414]”, the “Peptide Presentation on cancer entities” value was “GC, NHL, PRCA”.

Take “393 (ILLPYLQTL; listed as Homo sapiens) [compound 393]”: the “Peptide Presentation on cancer entities” value is given as “AML, BRCA, CLL, CRC, GBM, HCC, HNSCC, NHL, OC”.

With “90 (FLLMHPSI; listed as Homo sapiens) [compound 90]”, the “Peptide Presentation on cancer entities” value is “CLL, HCC, RCC”.

As for “330 (KEGDLGGKQW; listed as Homo sapiens) [compound 330]”, the “Peptide Presentation on cancer entities” value is reported as “NHL”.

“260 (YPQHPGLNA; listed as Homo sapiens) [compound 260]”: the “Peptide Presentation on cancer entities” value is listed as “BRCA, GBM, GC, NHL”.

Turning to “118 (ALSSVLHSI; listed as Homo sapiens) [compound 118]”, the “Peptide Presentation on cancer entities” value is “AML, BRCA, CRC, GBC, HCC, HNSCC, MEL, NHL, OC, OSCAR, PACA, RCC, UBC”.

Consider “471 (KPRPDVTNEL; listed as Homo sapiens) [compound 471]”, for which the “Peptide Presentation on cancer entities” value is listed as “NHL”.

Take “96 (HLVGGLHTV; listed as Homo sapiens) [compound 96]”: the “Peptide Presentation on cancer entities” value is “AML, BRCA, CRC, GC, MEL, OC, PRCA”.

Regarding “306 (ILKVKVGL; listed as Homo sapiens) [compound 306]”, the “Peptide Presentation on cancer entities” value was “MEL, OC”.

As for “83 (TYCQNIKEF; listed as Homo sapiens) [compound 83]”, the “Peptide Presentation on cancer entities” value was “AML, OC, PRCA, UEC”.

With “193 (VTEFSLNTY; listed as Homo sapiens) [compound 193]”, the “Peptide Presentation on cancer entities” value is given as “GBC, GC, MEL, OC, OSCAR, UEC”.

Consider “214 (RTMSEAALVRK; listed as Homo sapiens) [compound 214]”, for which the “Peptide Presentation on cancer entities” value is “GC, NHL, OC, PRCA, UEC”.

For the substance “169 (RLDTPLYFSY; listed as Homo sapiens) [compound 169]”, the “Peptide Presentation on cancer entities” value is reported as “MEL, OC”.

For “442 (TSDFSRFTNY; listed as Homo sapiens) [compound 442]”, the “Peptide Presentation on cancer entities” value is “GBM”.

As for “52 (KYMKIFHKF; listed as Homo sapiens) [compound 52]”, the “Peptide Presentation on cancer entities” value was “OC, UEC”.

Consider “451 (YSDSLVQKGY; listed as Homo sapiens) [compound 451]”, for which the “Peptide Presentation on cancer entities” value is “GBM, GC, HCC, OC, PRCA, UEC”.

For the substance “305 (ALKLRVAVL; listed as Homo sapiens) [compound 305]”, the “Peptide Presentation on cancer entities” value is given as “NHL”.

As for “465 (VPRPIFSQL; listed as Homo sapiens) [compound 465]”, the “Peptide Presentation on cancer entities” value is “NHL”.

With “178 (SSDSSTLPKL; listed as Homo sapiens) [compound 178]”, the “Peptide Presentation on cancer entities” value is recorded as “GC, OC, PRCA”.

On to “426 (NLDQATRVAY; listed as Homo sapiens) [compound 426]”, for which the “Peptide Presentation on cancer entities” value was “NHL”.

Regarding “202 (KLAELEGALQK; listed as Homo sapiens) [compound 202]”, the “Peptide Presentation on cancer entities” value is reported as “MEL, OC, UEC”.

“301 (YMHKLLVL; listed as Homo sapiens) [compound 301]”: the “Peptide Presentation on cancer entities” value is listed as “AML, NHL, OC, PRCA, UEC”.

For the substance “382 (IYHSHHPTL; listed as Homo sapiens) [compound 382]”, the “Peptide Presentation on cancer entities” value is “AML, MEL, NHL, OC, UEC”.

With “345 (IEFIHPQAF; listed as Homo sapiens) [compound 345]”, the “Peptide Presentation on cancer entities” value is reported as “GBM, GC, NHL, PRCA”.

For the substance “69 (IMPEKFEFW; listed as Homo sapiens) [compound 69]”, the “Peptide Presentation on cancer entities” value is recorded as “AML, GC, MEL, NHL, UEC”.

“434 (QTDCAPNNGY; listed as Homo sapiens) [compound 434]”: the “Peptide Presentation on cancer entities” value is recorded as “GBM, GC, MEL, PRCA”.

For the substance “28 (YYSIISHTL; listed as Homo sapiens) [compound 28]”, the “Peptide Presentation on cancer entities” value is “HCC”.

On to “162 (LVDNSIRELQY; listed as Homo sapiens) [compound 162]”, for which the “Peptide Presentation on cancer entities” value was “GC, HCC, MEL, NHL, OC, UEC”.

With “53 (KYITNLEDL; listed as Homo sapiens) [compound 53]”, the “Peptide Presentation on cancer entities” value was “PRCA”.

“22 (TQPGDWTLF; listed as Homo sapiens) [compound 22]”: the “Peptide Presentation on cancer entities” value was “MEL”.

“65 (VYPASKMFPFI; listed as Homo sapiens) [compound 65]”: the “Peptide Presentation on cancer entities” value is given as “GBM, GC, HCC, MEL, NHL, OC, UEC”.

As to “396 (ASEFGNHYLY; listed as Homo sapiens) [compound 396]”, the “Peptide Presentation on cancer entities” value is on record as “GBM, GC, MEL, UEC”.

Consider “55 (RWMDQRLVF; listed as Homo sapiens) [compound 55]”, for which the “Peptide Presentation on cancer entities” value is reported as “GC, HCC, MEL, UEC”.

Turning to “484 (AEVGFVRFF; listed as Homo sapiens) [compound 484]”, the “Peptide Presentation on cancer entities” value is recorded as “AML, MEL, NHL, OC”.

Take “235 (MPLKHYLLL; listed as Homo sapiens) [compound 235]”: the “Peptide Presentation on cancer entities” value is “MEL, NHL, OC, UEC”.

Take “433 (QIDTGENLY; listed as Homo sapiens) [compound 433]”: the “Peptide Presentation on cancer entities” value is on record as “GC, MEL”.

Take “181 (TADGKTYYY; listed as Homo sapiens) [compound 181]”: the “Peptide Presentation on cancer entities” value was “GBM, HCC, MEL, PRCA”.

In the case of “296 (MPMQDIKM; listed as Homo sapiens) [compound 296]”, the “Peptide Presentation on cancer entities” value is “UEC”.

Consider “157 (LMDRPIFY; listed as Homo sapiens) [compound 157]”, for which the “Peptide Presentation on cancer entities” value was “GBM, GC, MEL, NHL”.

For the substance “446 (VTAQVVGTERY; listed as Homo sapiens) [compound 446]”, the “Peptide Presentation on cancer entities” value was “GC, MEL”.

Consider “277 (MPLFEPRVF; listed as Homo sapiens) [compound 277]”, for which the “Peptide Presentation on cancer entities” value was “OC, UEC”.

For “368 (GEFPVRVQV; listed as Homo sapiens) [compound 368]”, the “Peptide Presentation on cancer entities” value is “AML, GC, OC, UEC”.

Consider “132 (ALWLVDPLTV; listed as Homo sapiens) [compound 132]”, for which the “Peptide Presentation on cancer entities” value is recorded as “CLL, CRC, GBM, HCC”.

For the origin of these results see patent US11292821B2, “Peptides and combination of peptides for use in immunotherapy against lung cancer, including NSCLC, SCLC and other cancers” (Immatics Biotechnologies GmbH, priority 2017, dated 2022).
